No constants are given. Whether binding was seen depends on the method and setting. Some binding calls cover weakened binding; strength is not graded here. Where a sequence is shown, tags or fusion partners need not be part of it.
What was measured:
[1] = target: T1, Smc1^Psm1-SNAP subunit of the fission yeast cohesin tetramer (head-tagged variant, TMR-labelled) (fission yeast) (UniProt O94383); assay: co-purification of the recombinant complex (SDS-PAGE, Coomassie); purified cohesin complex resolved by SDS-PAGE; purification methods in the Supplementary Information
T1 sequence (chain, TMR fluorophore on the SNAP-tag): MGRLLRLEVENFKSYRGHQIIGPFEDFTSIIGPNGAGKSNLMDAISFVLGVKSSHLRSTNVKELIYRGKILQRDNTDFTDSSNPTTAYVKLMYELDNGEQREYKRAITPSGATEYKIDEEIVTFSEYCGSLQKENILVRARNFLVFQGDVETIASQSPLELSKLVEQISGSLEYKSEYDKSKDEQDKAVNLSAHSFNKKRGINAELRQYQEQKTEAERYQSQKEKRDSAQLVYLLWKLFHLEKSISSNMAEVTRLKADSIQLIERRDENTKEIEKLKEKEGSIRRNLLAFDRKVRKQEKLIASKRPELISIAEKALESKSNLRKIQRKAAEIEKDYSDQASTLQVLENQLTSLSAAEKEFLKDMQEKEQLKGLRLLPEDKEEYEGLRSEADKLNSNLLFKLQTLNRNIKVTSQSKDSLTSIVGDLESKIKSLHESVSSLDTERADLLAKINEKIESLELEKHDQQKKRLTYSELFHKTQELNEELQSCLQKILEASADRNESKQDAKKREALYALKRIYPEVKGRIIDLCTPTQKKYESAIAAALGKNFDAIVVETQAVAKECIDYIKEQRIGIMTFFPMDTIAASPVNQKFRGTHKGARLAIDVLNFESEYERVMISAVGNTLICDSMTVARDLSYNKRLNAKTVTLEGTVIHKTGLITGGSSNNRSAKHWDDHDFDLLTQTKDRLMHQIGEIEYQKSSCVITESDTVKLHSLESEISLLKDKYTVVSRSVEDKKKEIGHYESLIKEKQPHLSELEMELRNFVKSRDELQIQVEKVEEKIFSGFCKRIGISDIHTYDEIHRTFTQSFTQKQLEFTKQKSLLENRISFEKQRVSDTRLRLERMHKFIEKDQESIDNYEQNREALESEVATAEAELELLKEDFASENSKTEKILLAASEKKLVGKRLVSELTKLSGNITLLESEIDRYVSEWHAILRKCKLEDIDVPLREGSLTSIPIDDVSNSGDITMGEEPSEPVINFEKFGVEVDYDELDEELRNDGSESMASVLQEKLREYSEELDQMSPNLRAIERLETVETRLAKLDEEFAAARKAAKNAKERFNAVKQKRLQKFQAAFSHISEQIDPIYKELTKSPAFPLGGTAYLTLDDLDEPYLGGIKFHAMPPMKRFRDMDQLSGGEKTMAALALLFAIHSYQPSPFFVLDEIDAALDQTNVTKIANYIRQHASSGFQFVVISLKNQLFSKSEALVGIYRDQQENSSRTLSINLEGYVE

[2] = target: T2, Smc3^Psm3-CLIP-biotin subunit of the fission yeast cohesin tetramer (head-tagged variant) (fission yeast) (UniProt O42649); assay: as above
T2 sequence (chain, biotin on the CLIP-tag): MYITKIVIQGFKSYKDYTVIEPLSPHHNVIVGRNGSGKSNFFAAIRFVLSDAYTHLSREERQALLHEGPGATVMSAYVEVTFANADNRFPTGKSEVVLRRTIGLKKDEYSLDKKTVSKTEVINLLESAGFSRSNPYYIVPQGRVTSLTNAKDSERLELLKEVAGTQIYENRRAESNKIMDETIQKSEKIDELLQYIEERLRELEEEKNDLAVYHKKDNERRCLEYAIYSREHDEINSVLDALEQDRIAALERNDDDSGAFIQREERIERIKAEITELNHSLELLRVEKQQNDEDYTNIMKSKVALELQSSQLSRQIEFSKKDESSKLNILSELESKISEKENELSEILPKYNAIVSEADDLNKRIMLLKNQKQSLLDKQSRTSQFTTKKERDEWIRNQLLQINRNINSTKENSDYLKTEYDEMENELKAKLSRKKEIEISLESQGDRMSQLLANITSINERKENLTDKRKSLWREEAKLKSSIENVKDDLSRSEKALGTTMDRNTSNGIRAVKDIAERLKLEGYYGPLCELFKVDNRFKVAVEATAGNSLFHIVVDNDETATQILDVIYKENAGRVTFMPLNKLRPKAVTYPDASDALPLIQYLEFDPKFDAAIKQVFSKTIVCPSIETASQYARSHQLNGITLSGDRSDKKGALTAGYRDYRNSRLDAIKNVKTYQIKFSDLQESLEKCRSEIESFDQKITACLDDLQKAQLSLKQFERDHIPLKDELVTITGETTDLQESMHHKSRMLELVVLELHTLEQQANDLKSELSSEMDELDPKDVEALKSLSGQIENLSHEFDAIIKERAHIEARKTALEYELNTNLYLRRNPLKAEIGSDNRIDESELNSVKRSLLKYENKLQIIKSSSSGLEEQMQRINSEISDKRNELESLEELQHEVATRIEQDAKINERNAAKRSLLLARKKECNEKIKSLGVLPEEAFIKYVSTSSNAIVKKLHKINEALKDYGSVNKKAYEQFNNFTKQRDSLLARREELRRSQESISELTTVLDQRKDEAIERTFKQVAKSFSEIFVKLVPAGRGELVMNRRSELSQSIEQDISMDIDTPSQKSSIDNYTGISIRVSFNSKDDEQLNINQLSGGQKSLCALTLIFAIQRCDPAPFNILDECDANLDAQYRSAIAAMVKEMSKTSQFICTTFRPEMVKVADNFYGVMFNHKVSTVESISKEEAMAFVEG

binding [1]: binds | binding [2]: binds
B1: Scc1^Rad21 kleisin subunit of the fission yeast cohesin tetramer (protein, UniProt P30776 1-628)
chain: MFYSEAILSKKGPLAKVWLAAHWEKKLSKVQTLHTSIEQSVHAIVTEETAPMALRLSGQLMLGVVRIYSRKARYLLEDCTEALMRLKMSFQPGQVDMIEPATALQSLKGKDAVTQSANLTLPETITEFDLLVPDSTFDFQWSQLLRTPSRSSNTLELHSLPISSSPSFPSSQLSIEAGRNAQVESGFSLGESFAHVGNDMQFHLPISNSGAATPRSVHSDNQSQISIEVGRDAPAAAATDLSGIIGPQMTKSPASSVTHFSTPSMLPIGGTSLDDELLAPVDDLNLDLGLDDLLGDEQGANAPAIEADEQAETSSIHLPSDIMEDDSSRPAAAGVEEGQVVESATAPQQEKINPQKTVRRQRAIIDPVTELSSKQMKKQLADTSSITSPLCLNTSSIVFNATVNFTRNGKFNTSIFSSNLNPKVNELLQADFKQAILRKRKNESPEEVEPAKHQRTDTSTENQETAEVLDPEEIAAAELANITEAAIATLPQETVVQPEGEAPELGSPMGFPVTALESADDSLFDAPPVMLDEADLLGSERLDSSVSEALPSSQTAKDSLRNKWDPYTEGEKVSFQTLSAGCNREEAVQLFFDVLVLATKDVISVKQDVAIQNEITLTAKRGMLLSSL

Source: paper PMC11377297, “Mechanical disengagement of the cohesin ring” (Nature Structural & Molecular Biology, 2023)
